Experimental data published in PubChem BioAssay AID1487 (National Center for Advancing Translational Sciences (NCATS), 2009).
Out of some 200,000 compounds screened, about 25 (0.01%) were called active. Inconclusive results, whose numbers are uncertain, are shown with a selection of clear calls. Calls follow the shape of the dose curve; as a rule, active = well fitted inhibition curve with a large enough effect in the signal ratio, with a control signal flat (not every such curve was filed as active); inconclusive = small, poorly fitted or top-dose-only effect, or effect the other way, or a change in a side signal; inactive = flat fitted curve, though single readings scatter; the % refers to the signal ratio. Potencies of inconclusive entries are doubtful fits and often do not repeat.

Assay: qHTS Assay for Modulators of Lamin A Splicing
Settings: HeLa LMNA splicing GFP/RFP minigene ratio, 48 h; ratio change, negative = inhibition: at 46.1 µM (top of the series) unless noted
How it was run: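 Read-out is the ratio of GFP to DsRed2 object intensity, acquired by 488 nm laser-scanning cytometry on HeLa lamin A-EGFP minigene reporter cells. Compound incubation 48 hrs at 37 °C in Opti-MEM with 2% FBS; DMSO 0.5% final.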
% is scaled to controls: 0 for no effect and ±100 for the full control effect; potency is read from the fitted curve at half-maximal effect.

| SMILES | ratio change, negative = inhibition | Potency |
| --- | --- | --- |
| O=C(O)C1C2C=CC(O2)C1C(=O)Nc1ccc2c(c1)OCCO2 (stereo unspecified) | inactive: -0.154% |  |
| Cc1cccc(N2CCN(CCNC(=O)C3COc4ccccc4C3)CC2)c1C (stereo unspecified) | inconclusive: -27.2% [at 46 µM] |  |
| CCCCCc1nnc(NC(=O)C2COc3ccccc3O2)s1 (stereo unspecified) | inconclusive: -20.5% [at 46 µM] |  |
| C/C=C(\C)C(=O)OC1c2c(ccc3ccc(=O)oc23)OC(C)(C)C1OC(C)=O (stereo unspecified) | inconclusive: 9.06% |  |
| Cn1nnnc1Sc1ncnc2scc(-c3ccc(F)cc3)c12 | inconclusive: 2.37% |  |
| O=C(Oc1ccc(OC(=O)N2CCCCC2)cc1)N1CCCCC1 | inconclusive: 2.72% [at 46 µM] |  |
| O=C(CSC1=NC2(CCCCC2)N=C1c1ccccc1)Nc1ccc2c(c1)OCCO2 |  | inconclusive: 35.5 µM [falling, single point] |
| CN(c1ccccc1)S(=O)(=O)c1cccc(NC(=O)c2cc(=O)c3ccccc3o2)c1 | inconclusive: 3.08% [at 46 µM] |  |
| O=c1sc2ccccc2n1Cc1ccccc1 | inconclusive: 13% [at 46 µM] |  |
| CN(C)CC(C(=O)c1ccccc1)c1ccccc1 (stereo unspecified) |  | inconclusive: 3.55 µM [falling, single point] |
| COc1cc(C(=O)Nc2ccc3nc(SCc4ccc(C)cc4)sc3c2)cc(OC)c1OC | inconclusive: 18.3% [at 46 µM] |  |
| O=P(O)(O)O | inactive: 22.3% |  |
| CCCCC1=CC2=C(c3ccco3)C(=O)C(C)(OC(=O)c3ccc(OC)cc3)C(=O)C2=CN1CC(C)C (stereo unspecified) | inconclusive: 4.85% [at 9.22 µM] |  |
| CCOC(=O)COc1cc(-n2c(=S)[nH]c3ccccc3c2=O)c(Cl)cc1Cl | inconclusive: 15.1% [at 46 µM] |  |
| COc1ccccc1Cc1nc(-c2ccncc2)no1 | inactive: -0.141% [at 46 µM] |  |
| CCOc1ccccc1NC(=O)C(=O)NCCc1sc(-c2cccc(F)c2)nc1C | inconclusive: 34.7% [at 46 µM] |  |
| CC(=O)N[C@H]1[C@@H](O[C@@H](C)C(=O)O)[C@H](O)[C@H](CO)O[C@@H]1O | inactive: -5.9% |  |
| Cc1ccc(N2CC3=C(C2=O)C(c2ccccc2)NC(=O)N3C)cc1 (stereo unspecified) | inactive: 2.93% |  |
| CCOc1ccc(NC(=O)N2CCN(c3nc4ccccc4s3)CC2)cc1 | inconclusive: -29.1% |  |
| O=C(NCc1ccc2c(c1)CCN2C(=O)c1ccc(F)cc1)c1cc2ccccc2[nH]1 |  | inconclusive: 14.1 µM [inhibitor, single point] |
| COc1ccccc1CNC(=O)CCC(=O)N1CC2CCCN2c2ccccc21 (stereo unspecified) | inconclusive: -13.8% [at 46 µM] |  |

Four entries from above, field by field:
COc1cc(C(=O)Nc2ccc3nc(SCc4ccc(C)cc4)sc3c2)cc(OC)c1OC
  ratio change, negative = inhibition: inconclusive: 18.3% [at 46 µM]
O=P(O)(O)O
  ratio change, negative = inhibition: inactive: 22.3%
CCCCC1=CC2=C(c3ccco3)C(=O)C(C)(OC(=O)c3ccc(OC)cc3)C(=O)C2=CN1CC(C)C (stereo unspecified)
  ratio change, negative = inhibition: inconclusive: 4.85% [at 9.22 µM]
CCOC(=O)COc1cc(-n2c(=S)[nH]c3ccccc3c2=O)c(Cl)cc1Cl
  ratio change, negative = inhibition: inconclusive: 15.1% [at 46 µM]

(cont.)

| SMILES | ratio change, negative = inhibition | Potency |
| --- | --- | --- |
| CCC(=O)NC(=S)Nc1ccc(NC(=O)COc2ccc(Cl)cc2Cl)cc1 | inconclusive: 3.91% |  |
| COc1ccc(-c2nc(CSCC(=O)NCc3ccc4c(c3)OCO4)c(C)o2)cc1OC | inconclusive: -26.8% |  |
| Cc1ccc(C)c(OCC(=O)NC(Cc2c[nH]c3ccccc23)C(=O)O)c1 (stereo unspecified) | inconclusive: 30.3% [at 46 µM] |  |
| COc1ccccc1-c1cc(N(C)Cc2ccco2)ncn1 | inconclusive: 37.2% |  |
| O=C(NC1CCCCC1)c1ccc(Cn2c(SCc3ccccc3F)nc3cccnc32)cc1 | inconclusive: -24.3% [at 46 µM] |  |
| COc1cccc(C(=O)Nc2cccc(C(=O)OCc3cc(=O)n4nc(C5CC5)sc4n3)c2)c1 | inconclusive: -6.46% [at 46 µM] |  |
| c1ccc2c(NC3CC3)nc(-c3ccoc3)nc2c1 | inconclusive: -23.8% |  |
| COc1cccc(NC(=O)c2ccc3nc(CCc4ccccc4)oc3c2)c1 | inactive: -1.82% [at 46 µM] |  |
| CCS(=O)(=O)N1CCN(CC(=O)NC2CCCCC2)CC1 | inconclusive: -2.35% [at 46 µM] |  |
| CCCn1c2ccccc2c2cnn(CC(=O)N(C)c3ccc(F)cc3)c(=O)c21 | inactive: -4.51% [at 46 µM] |  |
| Nc1nnc(CC(=O)N/N=C/c2cc([N+](=O)[O-])cc(Br)c2O)s1 | inconclusive: -0.554% [at 1.84 µM] |  |
| COc1ccccc1NC(=O)C1=C(C)Nc2c(C(=O)Nc3ccc(F)cc3)cnn2C1c1cccc([N+](=O)[O-])c1 (stereo unspecified) | inconclusive: -6.75% [at 46 µM] |  |
| CCOc1ccc(C(CC(=O)O)n2cnnn2)cc1 (stereo unspecified) | inconclusive: 5.39% [at 9.22 µM] |  |
| Cc1ccc2nsnc2c1NC(=O)COc1ccccc1F | inconclusive: 31.4% [at 46 µM] |  |
| CC1CCCN(C(=O)CSc2nnc(-c3c[nH]c4ccccc34)o2)C1 (stereo unspecified) | inactive: -13.6% |  |
| O=C(COc1ccccc1)N(Cc1cc2ccccc2[nH]c1=O)CC1CCCO1 (stereo unspecified) | inconclusive: 1.33% |  |
| CCCCC(=O)Nc1ccc(C(=O)OCc2cc(=O)n3nc(C4CC4)sc3n2)cc1 | inconclusive: -0.444% [at 46 µM] |  |
| C=CCN1CCc2nc(N)sc2CC1 | inactive: -7.15% |  |
| COc1ccccc1/C=N/OCC(=O)NCc1ccc2c(c1)OCO2 | inactive: -12.1% |  |
| COCCCNC(=S)N(Cc1ccccc1)Cc1ccc(F)cc1 | inconclusive: -20.5% [at 46 µM] |  |
| CCNc1nc(NCC)n2c(SCC(=O)Nc3ccccc3)nnc2n1 | inconclusive: -6.16% [at 46 µM] |  |

| SMILES | ratio change, negative = inhibition | Potency |
| --- | --- | --- |
| Cc1ccc(NC(=O)CSc2[nH]c(=O)ncc2C)cc1 | inactive: 11.2% [at 46 µM] |  |
| CCN1CCN(C(c2ccccc2)c2c(O)cc(C)n(CCOC)c2=O)CC1 (stereo unspecified) | inconclusive: -15.8% [at 46 µM] |  |
| C=C1CSc2nc(=O)c3c4c(sc3n21)CCCC4 | inactive: 1.27% |  |
| COc1ccc(Br)cc1CNC(=O)c1ccc2c(c1)nc1n2CCCCC1 | inconclusive: -47.7% [at 46 µM] |  |
| CC1CC(N(C(=O)c2ccccc2Cl)c2ccccc2)c2ccccc2N1 (stereo unspecified) | inconclusive: -24.3% |  |
| Cc1cc(C)cc(N2CCn3c2nc2c3c(=O)n(CCc3ccccc3)c(=O)n2C)c1 |  | active: 1.78 µM |
| CC(C)C1S/C(=N/N=C/c2ccco2)NC1=O (stereo unspecified) | inactive: 9.02% |  |
| CN(C)C(=O)c1ccc(-c2cc(Nc3ccccc3)ncn2)cc1 | inconclusive: -19.7% |  |
| CN=c1scc(-c2ccccc2F)n1/N=C/c1ccc[nH]1 | inactive: 10.2% [at 46 µM] |  |
| Oc1cccc(Nc2ncnc3sc4c(c23)CCCC4)c1 | inconclusive: -19% [at 46 µM] |  |
| CCc1ccccc1NC(=O)N1CCC(NC(=O)C(Cc2ccccc2)NC(C)=O)CC1 (stereo unspecified) | inconclusive: 8.64% [at 46 µM] |  |
| O=C(CCc1ccc(O)cc1)c1c(O)cc(O)cc1O | inconclusive: -9.29% |  |
| COc1ccc(N=Cc2c(O)n(-c3cccc(C)n3)c(=O)c3ccccc23)cc1 | inconclusive: 1.61% |  |
| COc1cccc(-c2nc(NCc3ccc(OC)cc3OC)c3ccccc3n2)c1 | inconclusive: -22.3% |  |
| O=C(NC1(C(F)(F)F)NC(=O)N(C2CCCCC2)C1=O)c1ccco1 (stereo unspecified) | inconclusive: 29.9% [at 46 µM] |  |
| CCCCn1c(=S)[nH]c2ccccc2c1=O | inconclusive: 9.54% |  |
| CCOCC(=O)Nc1cccc(OC)c1 | inactive: -9.9% |  |
| O=c1[nH]c2cc([N+](=O)[O-])c([N+](=O)[O-])cc2[nH]c1=O | inconclusive: -7.65% |  |
| O=C1c2sc3nc4n(c(=O)c3c2CCC1Br)CCCCC4 (stereo unspecified) | inactive: 4.07% [at 0.0737 µM] |  |
| Cc1ccc2c(=O)c(C(=O)c3ccccc3)cn(CC(=O)Nc3ccccc3)c2n1 | inconclusive: 10.1% [at 46 µM] |  |
| CCOC(=O)N1CCN(S(=O)(=O)c2ccc(F)c(C(=O)Nc3ccc(C)c(Cl)c3)c2)CC1 |  | inconclusive: 35.5 µM [fluorescent, single point] |

| SMILES | ratio change, negative = inhibition | Potency |
| --- | --- | --- |
| Cc1ccc2cc(C(c3nnnn3C3CCCC3)N3CCN(c4ccccc4)CC3)c(=O)[nH]c2c1 (stereo unspecified) | inactive: -6.33% |  |
| Cc1c(=O)n(OCc2ccc(Cl)cc2)c2ccccc2[n+]1[O-] | inconclusive: 38% [at 46 µM] |  |
| COCCN(CCOC)C(=O)c1cc2c(=O)n3ccccc3nc2n1C | inconclusive: -8.54% [at 46 µM] |  |
| O=C(O)CCC(=O)NC1CCCCC1 | inactive: -15.9% |  |
| Cc1[nH]c2ccccc2c1CCN(Cc1cccnc1)C(=S)Nc1ccc(F)cc1 | inconclusive: 1.72% [at 9.22 µM] |  |
| COCCCNC(=O)C(=O)N/N=C/c1cc2c(cc1Br)OCO2 | inactive: -6.81% [at 46 µM] |  |
| O=C(NCCCN1CCCCC1)c1cc(Sc2ccc(Cl)cc2)nc2ccccc12 | inconclusive: -13.6% [at 46 µM] |  |
| O=C(C/C=N/OCc1ccccc1F)c1cnc(-c2ccc(Cl)cc2)s1 | inactive: -7.17% |  |
| CCOC(=O)C1CCN(C(=O)Cn2ncc3c([nH]c4ccc(C)cc43)c2=O)CC1 | inconclusive: 24.9% [at 46 µM] |  |
| CCOC(=O)C1CCC(CN(Cc2c(Cl)cccc2Cl)S(=O)(=O)c2ccc(F)cc2)CC1 (stereo unspecified) | inconclusive: -5.13% [at 46 µM] |  |
| Cc1cc(C)cc(N2CN=c3s/c(=C\c4ccco4)c(=O)n3C2)c1 | inactive: -1.9% |  |
| O=C(COc1cccnc1[N+](=O)[O-])N1CCN(S(=O)(=O)c2ccc3ccccc3c2)CC1 |  | inconclusive: 35.5 µM [falling, single point] |
| Cc1ccc(NC(=S)NCc2ccccc2Cl)c(C)c1 |  | inconclusive: 35.5 µM [fluorescent, single point] |
| Cc1ccc(S(=O)(=O)CCC(=O)N2CCN(c3nc4c(C)c(Cl)ccc4s3)CC2)cc1 | inconclusive: -3.69% [at 46 µM] |  |
| O=C(/N=C1\NC(=O)C(F)(C(F)(F)F)S1)NC1CCCCC1 (stereo unspecified) | inactive: -3.63% |  |
| COc1ccc(OC)c(NC(=O)COC(=O)c2c3c(nc4ccccc24)CCCC3)c1 |  | inconclusive: 35.5 µM [inhibitor, single point] |
| CS(=O)(=O)N(CC(=O)N1CCN(c2ccccc2F)CC1)c1cccc(C(F)(F)F)c1 |  | inconclusive: 11.2 µM [falling, single point] |
| CCc1n[nH]c(=S)n1/N=C/c1ccc2c(c1)OCO2 | inconclusive: 39.2% |  |
